Taken from: PubChem BioAssay AID504774 (Drosophila RNAi Screening Center, 2011)

Screen: 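Genes required for cells to withstand methyl methanesulphonate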 (primary screen)
System: Drosophila Kc167 cells
Knock-down reagent: long dsRNA against Drosophila genes, about 0.25 µg dsRNA per well
Time to read-out: about 6 days: 3 days knock-down, then 3 days with or without MMS
Challenge: methyl methanesulphonate 0.004% (w/v) for 3 days after knock-down
Measurement: 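ATP-dependent luminescence as a measure of live cells in MMS-exposed wells, quantile normalised within each plate, with replicate values also given as a mean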
Direction: mean viability with MMS: higher = more surviving cells after MMS
The deposit covers about 23,000 reagents; shown is an unselected part of those with a known target gene and a result. 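Values are quantile-normalised luminescence on an arbitrary scale; higher means more cells surviving MMS.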 Further read-outs or replicates are left out here. No sequences are given here.

The opening 2 records, ahead of the listing:
tx (retired record) [DRSC16931] → mean viability with MMS: 3.55e6
IntS8 (Integrator 8) [DRSC07417] → mean viability with MMS: 3.28e6

The listing, from the first entry:
tx (retired record) [DRSC16931] → mean viability with MMS: 3.55e6
IntS8 (Integrator 8) [DRSC07417] → mean viability with MMS: 3.28e6
CG10887 [DRSC14277] → mean viability with MMS: 3.64e6
Lgr3 (Leucine-rich repeat-containing G protein-coupled receptor 3) [DRSC15704] → mean viability with MMS: 3.47e6
Lgr3 (Leucine-rich repeat-containing G protein-coupled receptor 3) [DRSC15706] → mean viability with MMS: 3.25e6
Npc2b (Niemann-Pick type C-2b) [DRSC15464] → mean viability with MMS: 3.69e6
RpS25 (Ribosomal protein S25) [DRSC16837] → mean viability with MMS: 3.18e6
RIOK1 (RIO kinase 1) [DRSC09853] → mean viability with MMS: 3.65e6
trbl (tribbles) [DRSC11901] → mean viability with MMS: 3.54e6
St4 (Sulfotransferase 4) [DRSC07008] → mean viability with MMS: 3.56e6
CG17746 [DRSC08521] → mean viability with MMS: 3.68e6
CG17746 [DRSC23333] → mean viability with MMS: 3.62e6
CG17834 [DRSC02637] → mean viability with MMS: 3.53e6
CG18420 [DRSC01954] → mean viability with MMS: 3.49e6
